Assay results reported in the supplement of paper PMC11732987, “Enantioselective OTUD7B fragment discovery through chemoproteomics screening and high-throughput optimisation” (Communications Chemistry, 2025).
Some of the results follow. The data scatter; read single values as rough.

Protein sequences, listed by entry. Tags and fused reporters are not part of them. Lines headed by an entry give the natural chain unless they say otherwise; changes in a name come on top.
UniProt Q96GX5: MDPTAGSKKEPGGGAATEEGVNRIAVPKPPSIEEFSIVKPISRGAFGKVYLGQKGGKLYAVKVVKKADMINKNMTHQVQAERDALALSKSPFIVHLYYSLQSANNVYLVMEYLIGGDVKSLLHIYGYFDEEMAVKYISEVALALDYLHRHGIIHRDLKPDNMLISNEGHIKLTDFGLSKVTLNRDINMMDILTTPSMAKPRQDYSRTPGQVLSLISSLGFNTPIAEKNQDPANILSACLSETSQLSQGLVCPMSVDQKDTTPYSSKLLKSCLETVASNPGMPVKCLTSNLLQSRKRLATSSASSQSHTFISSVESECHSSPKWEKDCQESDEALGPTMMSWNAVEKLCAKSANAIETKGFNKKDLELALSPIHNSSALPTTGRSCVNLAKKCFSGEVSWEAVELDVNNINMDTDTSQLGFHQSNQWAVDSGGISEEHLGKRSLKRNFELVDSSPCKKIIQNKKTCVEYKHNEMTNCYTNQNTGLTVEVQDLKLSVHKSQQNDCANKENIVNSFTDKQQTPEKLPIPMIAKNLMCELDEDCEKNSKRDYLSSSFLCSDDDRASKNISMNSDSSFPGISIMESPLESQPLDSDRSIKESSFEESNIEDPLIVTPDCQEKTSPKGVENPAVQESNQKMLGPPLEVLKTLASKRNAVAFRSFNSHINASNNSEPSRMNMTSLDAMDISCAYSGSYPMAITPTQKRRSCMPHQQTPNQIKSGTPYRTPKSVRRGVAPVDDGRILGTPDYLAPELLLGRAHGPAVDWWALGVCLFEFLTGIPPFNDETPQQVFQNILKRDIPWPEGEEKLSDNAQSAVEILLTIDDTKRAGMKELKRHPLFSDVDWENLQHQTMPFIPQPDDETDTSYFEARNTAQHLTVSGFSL
UniProt Q9Y546: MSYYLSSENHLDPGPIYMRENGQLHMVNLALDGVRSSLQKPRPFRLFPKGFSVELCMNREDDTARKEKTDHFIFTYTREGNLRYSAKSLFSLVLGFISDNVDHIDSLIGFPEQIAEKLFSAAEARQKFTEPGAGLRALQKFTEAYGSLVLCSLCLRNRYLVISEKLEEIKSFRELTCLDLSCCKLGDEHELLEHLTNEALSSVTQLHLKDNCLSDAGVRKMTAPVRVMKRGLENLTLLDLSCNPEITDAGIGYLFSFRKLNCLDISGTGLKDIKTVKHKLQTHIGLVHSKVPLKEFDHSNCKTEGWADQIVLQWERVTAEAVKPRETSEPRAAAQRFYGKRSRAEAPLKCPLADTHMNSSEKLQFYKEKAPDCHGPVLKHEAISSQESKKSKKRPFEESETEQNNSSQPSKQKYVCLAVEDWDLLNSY
UniProt P36941: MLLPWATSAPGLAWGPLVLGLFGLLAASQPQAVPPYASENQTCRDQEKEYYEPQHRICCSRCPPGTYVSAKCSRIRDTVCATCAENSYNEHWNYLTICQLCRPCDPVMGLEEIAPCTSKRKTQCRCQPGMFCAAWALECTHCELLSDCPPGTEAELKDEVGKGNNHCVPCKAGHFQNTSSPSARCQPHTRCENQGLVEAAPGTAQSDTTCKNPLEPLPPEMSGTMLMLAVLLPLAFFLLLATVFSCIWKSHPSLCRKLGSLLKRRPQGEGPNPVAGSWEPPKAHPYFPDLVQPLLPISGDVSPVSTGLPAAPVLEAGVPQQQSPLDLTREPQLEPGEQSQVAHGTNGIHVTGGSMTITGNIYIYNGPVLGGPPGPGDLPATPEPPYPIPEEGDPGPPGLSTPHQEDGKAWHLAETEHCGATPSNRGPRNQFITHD
UniProt P23508: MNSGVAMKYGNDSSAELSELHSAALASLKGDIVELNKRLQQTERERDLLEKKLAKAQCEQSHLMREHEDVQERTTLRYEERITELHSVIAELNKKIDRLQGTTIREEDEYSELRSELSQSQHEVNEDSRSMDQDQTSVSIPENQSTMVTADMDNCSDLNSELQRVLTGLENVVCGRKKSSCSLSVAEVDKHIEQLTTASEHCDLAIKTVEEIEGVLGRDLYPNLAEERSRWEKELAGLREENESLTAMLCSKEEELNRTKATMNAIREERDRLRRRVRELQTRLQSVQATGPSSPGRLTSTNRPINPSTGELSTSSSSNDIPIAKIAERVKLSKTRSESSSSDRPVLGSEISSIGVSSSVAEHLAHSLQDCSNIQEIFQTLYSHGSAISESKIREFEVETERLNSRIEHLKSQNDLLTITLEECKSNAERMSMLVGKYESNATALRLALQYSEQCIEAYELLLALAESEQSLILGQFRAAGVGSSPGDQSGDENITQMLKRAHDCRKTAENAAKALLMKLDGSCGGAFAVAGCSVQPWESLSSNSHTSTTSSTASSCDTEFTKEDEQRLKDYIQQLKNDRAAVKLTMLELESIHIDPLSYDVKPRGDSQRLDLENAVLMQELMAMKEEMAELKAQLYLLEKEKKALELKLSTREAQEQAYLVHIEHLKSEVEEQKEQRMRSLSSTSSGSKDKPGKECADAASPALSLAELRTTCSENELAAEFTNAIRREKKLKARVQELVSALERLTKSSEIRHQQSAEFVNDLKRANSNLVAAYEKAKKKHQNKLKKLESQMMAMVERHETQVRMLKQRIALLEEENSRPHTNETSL
UniProt Q9BTE3: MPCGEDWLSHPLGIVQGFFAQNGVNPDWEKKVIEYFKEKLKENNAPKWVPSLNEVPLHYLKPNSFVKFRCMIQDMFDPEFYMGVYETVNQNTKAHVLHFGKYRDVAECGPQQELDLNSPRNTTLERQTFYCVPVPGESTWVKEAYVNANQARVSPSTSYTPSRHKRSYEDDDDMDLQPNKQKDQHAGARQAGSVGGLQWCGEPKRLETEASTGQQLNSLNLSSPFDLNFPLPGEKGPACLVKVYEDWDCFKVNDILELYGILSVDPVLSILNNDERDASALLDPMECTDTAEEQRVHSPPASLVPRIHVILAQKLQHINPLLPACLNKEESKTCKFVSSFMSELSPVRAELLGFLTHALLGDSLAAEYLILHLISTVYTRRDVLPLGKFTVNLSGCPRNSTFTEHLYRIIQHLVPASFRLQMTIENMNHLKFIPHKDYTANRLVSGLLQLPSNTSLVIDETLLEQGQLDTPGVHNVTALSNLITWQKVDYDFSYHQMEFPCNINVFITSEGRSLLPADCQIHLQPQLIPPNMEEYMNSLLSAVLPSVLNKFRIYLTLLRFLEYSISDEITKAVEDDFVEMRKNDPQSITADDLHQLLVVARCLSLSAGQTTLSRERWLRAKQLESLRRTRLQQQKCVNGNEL
UniProt P20645: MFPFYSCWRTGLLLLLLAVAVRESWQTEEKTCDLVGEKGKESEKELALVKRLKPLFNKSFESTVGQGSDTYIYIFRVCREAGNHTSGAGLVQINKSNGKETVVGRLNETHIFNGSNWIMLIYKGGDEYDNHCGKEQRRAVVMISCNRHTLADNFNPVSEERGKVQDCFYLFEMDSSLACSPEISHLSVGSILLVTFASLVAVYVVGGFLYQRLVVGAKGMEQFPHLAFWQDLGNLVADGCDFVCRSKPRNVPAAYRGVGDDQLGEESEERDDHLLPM
UniProt Q9P0L2: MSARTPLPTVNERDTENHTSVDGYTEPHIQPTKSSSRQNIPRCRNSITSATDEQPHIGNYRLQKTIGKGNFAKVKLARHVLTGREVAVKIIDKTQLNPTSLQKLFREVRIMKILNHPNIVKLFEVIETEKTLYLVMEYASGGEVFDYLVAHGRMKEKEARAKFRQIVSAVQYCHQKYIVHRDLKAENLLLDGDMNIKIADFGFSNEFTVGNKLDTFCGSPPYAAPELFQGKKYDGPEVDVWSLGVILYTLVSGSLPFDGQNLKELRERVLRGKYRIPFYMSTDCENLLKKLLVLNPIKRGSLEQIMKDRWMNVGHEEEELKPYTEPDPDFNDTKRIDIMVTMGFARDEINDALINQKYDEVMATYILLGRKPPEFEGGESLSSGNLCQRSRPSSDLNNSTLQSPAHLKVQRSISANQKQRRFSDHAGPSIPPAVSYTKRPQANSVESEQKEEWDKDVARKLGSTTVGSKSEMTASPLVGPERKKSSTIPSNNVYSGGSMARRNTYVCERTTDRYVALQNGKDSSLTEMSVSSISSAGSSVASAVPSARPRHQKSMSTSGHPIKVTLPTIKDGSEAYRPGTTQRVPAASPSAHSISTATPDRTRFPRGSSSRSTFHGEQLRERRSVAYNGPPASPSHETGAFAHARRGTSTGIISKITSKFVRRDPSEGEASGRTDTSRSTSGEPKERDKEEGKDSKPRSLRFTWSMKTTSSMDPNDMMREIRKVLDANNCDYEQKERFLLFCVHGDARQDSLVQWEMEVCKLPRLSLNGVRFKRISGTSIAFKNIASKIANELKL
UniProt O95232: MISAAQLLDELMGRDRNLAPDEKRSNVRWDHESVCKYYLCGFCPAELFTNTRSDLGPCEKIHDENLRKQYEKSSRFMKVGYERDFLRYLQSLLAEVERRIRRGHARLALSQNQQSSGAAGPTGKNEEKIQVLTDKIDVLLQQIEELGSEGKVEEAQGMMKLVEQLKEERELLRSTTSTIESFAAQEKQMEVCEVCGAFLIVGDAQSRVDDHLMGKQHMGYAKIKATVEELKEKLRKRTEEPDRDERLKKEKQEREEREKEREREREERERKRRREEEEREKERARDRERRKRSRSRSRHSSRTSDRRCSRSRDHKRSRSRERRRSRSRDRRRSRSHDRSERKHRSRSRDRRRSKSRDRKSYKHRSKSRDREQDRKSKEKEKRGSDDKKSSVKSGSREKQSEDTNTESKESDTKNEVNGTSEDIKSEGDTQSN
UniProt Q9Y383: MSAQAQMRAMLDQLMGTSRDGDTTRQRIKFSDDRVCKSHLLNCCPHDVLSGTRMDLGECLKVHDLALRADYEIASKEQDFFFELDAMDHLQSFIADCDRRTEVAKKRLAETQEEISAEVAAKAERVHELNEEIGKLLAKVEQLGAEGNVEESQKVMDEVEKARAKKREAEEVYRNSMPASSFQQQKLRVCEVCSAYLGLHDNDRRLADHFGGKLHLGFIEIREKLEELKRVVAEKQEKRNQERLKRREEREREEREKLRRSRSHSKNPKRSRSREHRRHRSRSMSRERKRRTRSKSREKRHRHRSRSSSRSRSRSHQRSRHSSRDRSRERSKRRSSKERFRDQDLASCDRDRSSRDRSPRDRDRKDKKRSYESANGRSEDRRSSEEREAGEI
UniProt Q96L34: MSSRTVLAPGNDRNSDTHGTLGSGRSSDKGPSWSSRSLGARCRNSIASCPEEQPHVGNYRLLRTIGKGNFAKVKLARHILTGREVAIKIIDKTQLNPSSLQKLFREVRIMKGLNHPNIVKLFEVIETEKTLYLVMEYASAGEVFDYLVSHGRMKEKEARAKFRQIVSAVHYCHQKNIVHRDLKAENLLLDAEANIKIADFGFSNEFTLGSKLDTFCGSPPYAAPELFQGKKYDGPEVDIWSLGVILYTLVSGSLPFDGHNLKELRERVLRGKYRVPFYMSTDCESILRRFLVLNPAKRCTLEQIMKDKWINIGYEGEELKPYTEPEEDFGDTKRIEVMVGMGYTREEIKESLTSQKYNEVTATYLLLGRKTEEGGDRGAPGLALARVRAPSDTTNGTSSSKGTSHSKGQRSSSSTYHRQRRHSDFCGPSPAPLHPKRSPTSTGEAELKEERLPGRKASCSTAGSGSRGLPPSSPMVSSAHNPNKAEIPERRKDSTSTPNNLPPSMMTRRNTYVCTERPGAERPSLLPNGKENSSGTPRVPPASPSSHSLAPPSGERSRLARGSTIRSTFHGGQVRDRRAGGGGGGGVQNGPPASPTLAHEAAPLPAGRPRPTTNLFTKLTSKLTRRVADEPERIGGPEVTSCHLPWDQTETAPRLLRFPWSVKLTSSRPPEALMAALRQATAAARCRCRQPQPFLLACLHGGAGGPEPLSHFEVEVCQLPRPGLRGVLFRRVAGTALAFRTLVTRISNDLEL
UniProt Q9Y2U5: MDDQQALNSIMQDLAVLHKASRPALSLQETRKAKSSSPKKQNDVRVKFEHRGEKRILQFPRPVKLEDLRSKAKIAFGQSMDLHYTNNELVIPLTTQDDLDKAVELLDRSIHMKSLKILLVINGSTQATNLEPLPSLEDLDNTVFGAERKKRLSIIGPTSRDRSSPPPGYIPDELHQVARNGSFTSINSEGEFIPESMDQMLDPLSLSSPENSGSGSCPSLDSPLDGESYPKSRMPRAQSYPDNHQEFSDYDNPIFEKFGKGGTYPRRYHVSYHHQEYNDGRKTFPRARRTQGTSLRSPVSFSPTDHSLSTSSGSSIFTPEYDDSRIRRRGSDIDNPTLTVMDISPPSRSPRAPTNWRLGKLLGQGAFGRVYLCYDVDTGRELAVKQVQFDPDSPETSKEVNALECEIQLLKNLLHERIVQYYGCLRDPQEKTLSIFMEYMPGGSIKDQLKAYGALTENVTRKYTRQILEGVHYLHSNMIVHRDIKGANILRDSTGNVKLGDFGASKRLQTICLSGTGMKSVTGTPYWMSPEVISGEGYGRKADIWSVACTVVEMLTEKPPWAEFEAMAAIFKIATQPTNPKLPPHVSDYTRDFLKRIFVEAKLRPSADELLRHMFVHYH

Tests used:
[1] = compound: ClCC(=O)N[C@@H]1CCCc2ccccc12; experiment: log2 mean competition ratio of IA-DTB cysteine labelling (DMSO/compound) (log2 ratio); higher = stronger cysteine engagement by compound; conditions: treatment time: 4 h, cell line lysate: HEK293T
Method: (§1)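 IA-DTB competitive cysteine chemoproteomics in HEK293T RIPA lysate. Lysates were treated with compound 29 or 30 at 50 or 200 µM for 4 h, then IA-DTB (500 µM, 1 h), trypsin-digested, NeutrAvidin-enriched and analysed by diaPASEF. Competition ratio = intensity DMSO / intensity compound (n=4 treated, n=64 DMSO); binding: mean log2 CR ≥ 1 and p ≤ 0.05 plus QC filters. Target is the cysteine site.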

[2] = compound: ClCC(=O)N[C@H]1CCCc2ccccc12; experiment: as above; conditions: treatment time: 4 h, cell line lysate: HEK293T
Method: as §1

Target	log2 mean competition ratio ([1]; 50 µM)	log2 mean competition ratio ([1]; 200 µM)	log2 mean competition ratio ([2]; 50 µM)	log2 mean competition ratio ([2]; 200 µM)
LRRC40 C54 (UniProt Q9H9A6)	0.114	0.157	0.346	0.308
MALSU1 C110 (UniProt Q96EH3)	-0.255	-0.353	-0.103	-0.13
LRRC59 C131 (UniProt Q96AG4)	-0.286	0.0623	-0.249	0.25
MASTL C455 (UniProt Q96GX5)	0.127	0.112	0.21	0.0556
LRRC42 C301 (UniProt Q9Y546)	-0.0836	-0.0144	-0.301	0.0796
MAD2L1BP C221 (UniProt Q15013)	-0.046	0.201	0.00755	0.119
LRRC4B C340 (UniProt Q9NT99)	0.187	-0.109	0.131	-0.0216
LTBR C418 (UniProt P36941)	0.0921	0.0164	-0.336	-0.31
MCC C174 (UniProt P23508)	-0.114	0.264	-0.312	0.271
MCMBP C200 (UniProt Q9BTE3)	-0.156	0.0852	0.36	0.139
LRRFIP1 C14 (UniProt Q32MZ4)	-0.149	-0.114	0.228	0.0389
MASTL C555 (UniProt Q96GX5)	-0.526	-0.13	0.0505	0.199
MAP3K6 C232 (UniProt O95382)	0.299	0.198	0.124	0.42
LZTS2 C307 (UniProt Q9BRK4)	-0.0442	-0.0831	0.127	0.176
MAP7D3 C494 (UniProt Q8IWC1)	0.149	0.0699	0.201	0.133
LRRC1 C224	0.0874	-0.32	-0.181	-0.144
M6PR C32 (UniProt P20645)	-0.0495	0.183	-0.0611	0.17
MARK1 C387 (UniProt Q9P0L2)	0.155	0.24	-0.316	0.132
MCM5 C207 (UniProt P33992)	0.00674	0.0448	-0.00477	0.207
LUC7L3 C35 (UniProt O95232)	-0.105	0.0981	0.00416	0.0269
MAP3K5 C928 (UniProt Q99683)		-0.318	-0.0352	0.273
MAP7D2 C574	-0.0371	-0.174	0.0703	0.048

In another format: entries from further up.
Target | log2 mean competition ratio ([1]; 50 µM) | log2 mean competition ratio ([1]; 200 µM) | log2 mean competition ratio ([2]; 50 µM) | log2 mean competition ratio ([2]; 200 µM)
MASTL C555 (UniProt Q96GX5) | -0.526 | -0.13 | 0.0505 | 0.199
M6PR C32 (UniProt P20645) | -0.0495 | 0.183 | -0.0611 | 0.17

(list continues)

Target	log2 mean competition ratio ([1]; 50 µM)	log2 mean competition ratio ([1]; 200 µM)	log2 mean competition ratio ([2]; 50 µM)	log2 mean competition ratio ([2]; 200 µM)
LZTS2 C376 (UniProt Q9BRK4)	0.164	0.0558	-0.145	0.00481
MAP2K1 C277 (UniProt Q02750)	0.187	0.143	0.743	-0.136
MAP7D3 C572 (UniProt Q8IWC1)	-0.0165	0.0417	-0.0249	0.0754
MAP3K21 C369	-0.231	-0.347	-0.405	-0.176
MCM8 C548	-0.0394	-0.121	0.203	0.0506
LUC7L2 C348 (UniProt Q9Y383)	0.0624	0.0522	0.0481	0.0924
MACF1 C6075	0.0238		-0.258	0.00623
MARK4 C299 (UniProt Q96L34)	0.0536	-0.151	-0.117	-0.0102
MCM3AP C1189 (UniProt O60318)	-0.219	0.325	0.0563	0.13
MACROD1 C199 (UniProt Q9BQ69)	-0.0189	0.0943	0.0265	0.174
MARK3 C510 (UniProt P27448)	-0.0888	0.0211	0.111	0.046
MAP3K2 C373 (UniProt Q9Y2U5)	-0.121	-0.0894	-0.283	-0.0988
MAP3K1 C1012 (UniProt Q13233)	-0.0226	0.386	0.39	0.366
LRRC4B C683 (UniProt Q9NT99)	0.0761	-0.0327	0.198	0.0665
MAP7D2 C163	0.229	0.192	0.263	-0.00812
MACF1 C1522	0.285	-0.158	-0.0273	-0.269
MAGI1 C526	-0.156		-0.266	-0.264
MCM3AP C1945 (UniProt O60318)	0.0594	0.236	0.412	0.285
MAP2K3 C227 (UniProt P46734)	0.485	0.326	0.051	0.248
MAP4K3 C720 (UniProt Q8IVH8)	-0.0868	-0.0204	-0.46	0.143
LTN1 C91 (UniProt O94822)	0.0625	0.182	-0.0109	0.185
MAP4K5 C418 (UniProt Q9Y4K4)	-0.252	0.657	-0.158	0.495
